Measurements reported in PubChem BioAssay AID1259254 (NCATS, 2017)
Shown is an unselected part of about 59,000 reagents. Of all reagents, about 1,550 (2.6%) were called active. 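G2 share is only a proxy for re-replication; each gene was hit by three separate siRNAs, and active genes were retested.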 Raw values vary from plate to plate and are shown uncorrected. Reagents against one gene are numbered here. Not stated in the record: the amount of reagent.

- Test: 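Gene knock-downs that lead to re-replication, shown by excess G2 DNA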 (primary screen)
- Cells: human HCT116 colorectal cancer cells
- Reagent: single siRNA against human genes
- Time to read-out: 3 days
- Measured: 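Nuclei stained with Hoechst and imaged; cell-cycle phase assigned by DNA content; G2 share scaled per plate, non-targeting siRNA 0%, GMNN siRNA 100%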
- Direction: G2 robust z-score and G2 cells, % of GMNN control: higher = more G2 cells, more excess DNA replication; raw share of cells in G2: higher = larger share of cells with G2 DNA content
- Hit rule: 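Active siRNAs have a G2 robust z of 5 or more median absolute deviations over the median, which in these data means about 38% or higher of GMNN control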

gene knocked down	reagent	G2 robust z-score	G2 cells, % of GMNN control	raw share of cells in G2 (%)	call
FAM120C (GeneID 54954)	1	1.58	14.1	8.65	inactive
FAM120C (GeneID 54954)	2	0.385	5.67	6.66	inactive
FAM120C (GeneID 54954)	3	1.41	12.9	7.46	inactive
FOXM1 (GeneID 2305)	1	0.859	9.01	8.51	inactive
FOXM1 (GeneID 2305)	2	0.582	7.06	7.95	inactive
FOXM1 (GeneID 2305)	3	0.915	9.41	7.01	inactive
B3GNT9 (GeneID 84752)	1	2.19	18.4	10.2	inactive
B3GNT9 (GeneID 84752)	2	-0.568	-1.03	3.15	inactive
B3GNT9 (GeneID 84752)	3	-0.327	0.664	2.61	inactive
HRCT1 (GeneID 646962)	1	-0.714	-2.05	2.39	inactive
HRCT1 (GeneID 646962)	2	-0.685	-1.85	3.08	inactive
HRCT1 (GeneID 646962)	3	-0.319	0.725	3.49	inactive
SAA2 (GeneID 6289)	1	0.645	7.5	8.16	inactive
SAA2 (GeneID 6289)	2	2.23	18.7	11.6	inactive
SAA2 (GeneID 6289)	3	-0.402	0.141	3.41	inactive
MED7 (GeneID 9443)	1	2.78	22.5	15.5	inactive
MED7 (GeneID 9443)	2	3.13	25	14.4	inactive
MED7 (GeneID 9443)	3	1.7	15	8.85	inactive
IRF1 (GeneID 3659)	1	-0.406	0.109	5.08	inactive
IRF1 (GeneID 3659)	2	0.712	7.98	7.13	inactive
IRF1 (GeneID 3659)	3	0.88	9.16	9.17	inactive
C10orf67 (GeneID 256815)	1	0.929	9.51	7.02	inactive
C10orf67 (GeneID 256815)	2	-0.453	-0.222	3.05	inactive
C10orf67 (GeneID 256815)	3	-0.718	-2.09	2.53	inactive
C10orf67 (GeneID 256815)	4	-0.0839	2.38	4.59	inactive
C10orf67 (GeneID 256815)	5	-0.386	0.251	3.51	inactive
C10orf67 (GeneID 256815)	6	-0.283	0.98	5.05	inactive
ABTB2 (GeneID 25841)	1	6.28	47.2	19.8	active
ABTB2 (GeneID 25841)	2	-0.632	-1.48	3.5	inactive
ABTB2 (GeneID 25841)	3	4.35	33.6	21.4	inactive
HDAC7 (GeneID 51564)	1	0.0312	3.19	5.42	inactive
HDAC7 (GeneID 51564)	2	8.11	60	26.8	active
HDAC7 (GeneID 51564)	3	-0.698	-1.95	5.07	inactive
ACO2 (GeneID 50)	1	0.714	7.99	6.97	inactive
ACO2 (GeneID 50)	2	-1.13	-4.96	3.31	inactive
ACO2 (GeneID 50)	3	1.74	15.2	9.9	inactive
TRIR (GeneID 79002)	1	-0.872	-3.17	1.86	inactive
TRIR (GeneID 79002)	2	-1.21	-5.56	2.16	inactive
TRIR (GeneID 79002)	3	-0.254	1.18	5.14	inactive
CRY1 (GeneID 1407)	1	-0.815	-2.76	4.73	inactive
CRY1 (GeneID 1407)	2	-0.0535	2.59	6.13	inactive
CRY1 (GeneID 1407)	3	-0.942	-3.66	2.51	inactive
PRRX2 (GeneID 51450)	1	0.159	4.09	5.37	inactive
PRRX2 (GeneID 51450)	2	0.57	6.98	9.12	inactive
PRRX2 (GeneID 51450)	3	3.81	29.8	15.2	inactive
COL13A1 (GeneID 1305)	1	0.148	4.01	5.05	inactive
COL13A1 (GeneID 1305)	2	-0.313	0.766	5.21	inactive
COL13A1 (GeneID 1305)	3	-0.805	-2.7	2.13	inactive
LBP (GeneID 3929)	1	-0.356	0.466	3.35	inactive
LBP (GeneID 3929)	2	-0.332	0.631	5.6	inactive
LBP (GeneID 3929)	3	3.19	25.4	15.5	inactive
ARGFX (GeneID 503582)	1	0.323	5.24	6.2	inactive
ARGFX (GeneID 503582)	2	1.3	12.1	9.69	inactive
ARGFX (GeneID 503582)	3	0.101	3.68	7.49	inactive
CLDND2 (GeneID 125875)	1	-0.29	0.93	3.61	inactive
CLDND2 (GeneID 125875)	2	-0.475	-0.376	1.71	inactive
CLDND2 (GeneID 125875)	3	-0.251	1.2	4.57	inactive
GAS1 (GeneID 2619)	1	0.693	7.84	8.98	inactive
GAS1 (GeneID 2619)	2	1.05	10.3	7.87	inactive
GAS1 (GeneID 2619)	3	3.18	25.4	13.5	inactive
HCRTR1 (GeneID 3061)	1	1.28	12	6.95	inactive
HCRTR1 (GeneID 3061)	2	3.97	30.9	16.9	inactive
HCRTR1 (GeneID 3061)	3	0.766	8.36	7.44	inactive
CCN4 (GeneID 8840)	1	1.31	12.2	10.1	inactive
CCN4 (GeneID 8840)	2	-0.69	-1.89	4.03	inactive
CCN4 (GeneID 8840)	3	0.799	8.59	8.28	inactive
CTSS (GeneID 1520)	1	1.26	11.9	9.7	inactive
CTSS (GeneID 1520)	2	0.177	4.22	6.4	inactive
CTSS (GeneID 1520)	3	0.227	4.57	5.61	inactive

Entries listed so far whose target name starts with B or b (3):
gene knocked down	reagent	G2 robust z-score	G2 cells, % of GMNN control	raw share of cells in G2 (%)	call
B3GNT9 (GeneID 84752)	1	2.19	18.4	10.2	inactive
B3GNT9 (GeneID 84752)	2	-0.568	-1.03	3.15	inactive
B3GNT9 (GeneID 84752)	3	-0.327	0.664	2.61	inactive
